PubChem BioAssay AID1259424 | University of Nebraska Medical Center, 2018

- Screen: 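Seek colon cancer survival genes behaving like KSR1, using a six-gene signature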 (primary screen)
- System: human HCT116 colon cancer cells
- Knock-down reagent: siRNA pool against human genes, 50 nM
- Read-out: 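Log2 levels of six mRNAs (branched-DNA multiplex), adjusted by two reference genes and the non-targeting median, then scored against the average KSR1 knockdown pattern as Pearson r and euclidean distance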
- Scale: mean correlation with KSR1 profile: higher = expression change more like KSR1 knockdown
The whole screen tested about 14,000 reagents; below is a random part of them. 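Higher correlation or smaller distance means closer resemblance to KSR1 loss; control wells, including KSR1 knockdowns, recur on many plates.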 Some reagents were tested in more than one well and are listed for each. Further read-outs or replicates are left out here. The record does not give: the time to read-out.

Gene,PubChem SID,mean correlation with KSR1 profile
SLC5A5 (GeneID 6528),SID363991784,-0.423
SPAG4 (GeneID 6676),SID363994257,0.18
NPFFR2 (GeneID 10886),SID363995835,0.754
USP37 (GeneID 57695),SID364001903,0.122
LSM10 (GeneID 84967),SID364004251,0.488
RAE1 (GeneID 8480),SID363994688,-0.0874
FSHB (GeneID 2488),SID363991833,-0.681
UBE2G1 (GeneID 7326),SID363994458,0.524
CLIC6 (GeneID 54102),SID364004437,0.158
ACO1 (GeneID 48),SID363993398,-0.458
AVPI1 (GeneID 60370),SID364002173,-0.438
DEXI (GeneID 28955),SID363998550,-0.0737
SCAP (GeneID 22937),SID363998159,-0.164
TNNC2 (GeneID 7125),SID363994398,0.725
TDRKH (GeneID 11022),SID363997626,-0.66
CRKL (GeneID 1399),SID363996130,-0.0877
CLDN6 (GeneID 9074),SID364002082,-0.203
DRC4 (GeneID 2622),SID363992740,-0.55
BAG5 (GeneID 9529),SID363995824,-0.0353
CALCB (GeneID 797),SID363992025,-0.71
TXNIP (GeneID 10628),SID363997280,0.426
RBPJL (GeneID 11317),SID363998710,-0.226
IFNA2 (GeneID 3440),SID363991923,-0.337
KIR2DL4 (GeneID 3805),SID363993454,0.258
CAST (GeneID 831),SID364004820,-0.377
NAP1L4 (GeneID 4676),SID363996829,-0.541
DCP1A (GeneID 55802),SID364001044,-0.457
RMDN1 (GeneID 51115),SID363999811,-0.114
TCF15 (GeneID 6939),SID363995578,-0.227
CHRNA3 (GeneID 1136),SID363992038,0.355
LMOD1 (GeneID 25802),SID363998080,0.753
CENPU (GeneID 79682),SID364002928,0.0592
PCGF6 (GeneID 84108),SID364003809,0.662
UBE2E2 (GeneID 7325),SID364004733,-0.285
UBE2E2 (GeneID 7325),SID364004733,0.349
LMTK3 (GeneID 114783),SID364005244,-0.321
XK (GeneID 7504),SID364001999,0.224
CHAF1B (GeneID 8208),SID363996347,-0.375
WDR43 (GeneID 23160),SID364005266,-0.621
RNF14 (GeneID 9604),SID363995284,-0.228
CACNA2D2 (GeneID 9254),SID363996881,-0.126
RAB11FIP1 (GeneID 80223),SID364003279,0.00959
ZBTB1 (GeneID 22890),SID363999219,-0.4
EDEM3 (GeneID 80267),SID364003300,-0.272
HSPBP1 (GeneID 23640),SID363998189,-0.522
NFKBIE (GeneID 4794),SID363995527,-0.245
FGG (GeneID 2266),SID363991832,0.373
FOXN3 (GeneID 1112),SID363996121,0.0344
FOXN3 (GeneID 1112),SID364001135,-0.712
CLEC4A (GeneID 50856),SID363999933,-0.318
